According to patent publication US11733246B2 (Indi Molecular, Inc., priority 2020, dated 2023):

Experiment: general procedure: Fmoc solid-phase peptide synthesis; CTC resin; HBTU/DIPEA in DMF
Details: whole synthesis, analytical HPLC and LC/MS

## Fol-hshta-Gly-Phe-Lys(DOTA)
  final HPLC purity: 97%
